These results are taken from patent US20200390879A1.

Results are given in words; binding and its absence hold for the method and conditions named. For some assays here: Binding calls can cover weak binding; strength is not graded here.

Assay [1] has as its target WNV E ectodomain protein (West Nile virus). Nature of the assay: ELISA on coated recombinant protein. A general note: In an ELISA, binding on a coated surface is turned into a signal by an enzyme label.
The target of assay [2] is ZIKV E ectodomain protein (Zika virus). Nature of the assay: ELISA on coated recombinant protein.
Assay [3] addresses WNV E ectodomain protein (West Nile virus). Nature of the assay: ELISA on coated recombinant protein, mAb at 1 µg/ml.
The target is the same in assay [4]. As to the kind of experiment: ELISA cross-reactivity (Table A, cross-reactivity column; head missing).

B1: hJEV-69 (antibody, V domains shown)
VH: QVQLQESGPGLVKPSETLSLTCSVSGDSVSSANHYWTWVRQPPGKGLEWIGYMYHSGSTNFHPSLKSRVTISVDKSKNQFSLKLTSVTAADSAVYYCARVDAVMEYYYESGTAPGAFDIWGQGIMVTVSS
VL: DIVMTQSPDSLAVSLGERATINCKSSQSVLYRNNNKNYLAWYQHKPGQSPKLLIYWASTRESGVPDRFSGSGSGTDFTLTISSLQAEDVAVYYCHQYYSTPYTFGQGTKLEIK
For B1, the binding entry in assay [1] and in assay [2] was “no binding (tested: 1 µg/ml)” throughout.

B2: hJEV-80 (antibody, V domains shown)
VH: QVQLQESGPGLVKPSETLSLTCTVSGGSISSYYWSWIRQSPGKGLECIGYIFYSGSTNYNPSLKSRVTISVDASKNQFSLKLRSVTAADTAVYYCARVLGRMSFDHWGQGTPVTVSS
VL: SYVLTQPPSVSVAPGQTARITCGGNNIGSKSVHWYQQKSGQAPVLVVYNDRDRPSGIPERFSGSNSGNTASLTISRVEAGDEADYYCQVWDNGSDHYFFGTGTKVTVL
Consider B2, for which the binding entry in assay [3] and in assay [4] was “binds” each time.

B3: hJEV-11 (antibody, V domains shown)
VH: EVQLVESGGGLVQPGGSLRLSCAASGFTFSSYAMSWVRQAPGKGLEWVSVSGSAGATTYYADSVKGRFTISRDNSKNTLYLQMNSLRAEDTAVYYCAKDEWDYDYIWGSYRYWGQGTLVTVSS
VL: DIQMTQSPSSLSASVGDRVTITCRTSQSIGRYLNWYQQKPGKAPKLLIFAASSLQSGVPSRFSGSGSGTDFTLTISSLQLEDFATYYCQQTYITLMYTFGQGTKLEIK
On to B3, for which the binding entry in assay [3] and in assay [4] was “binds” in each case.

B4: hJEV-75 (antibody, V domains shown)
VH: QLQLQESGPGLVKPSETLSLTCTVSGGSISSTSYYWGWIRQSPGKGLEWIGSIFNNGRTFYNPSLKSRVTISVDTSKNQFSLKLSSVSAADTAIFYCARHLMYSTSSTDAFDIWGHGTMVTVSS
VL: QSALTQPASVSGSPGQSITMSCTGTSSDVGDYNLLSWYQHHPGKAPKLMIYEGSKRPSGVSNRFSGSKSGNTASLTISGLQAEDEADYYCCSYAGSSTWVFGGGTKLTVL
B4: the binding entry in assay [1] and in assay [2] was “no binding (tested: 1 µg/ml)” each time.
